Test results taken from PubChem BioAssay AID2685 (National Center for Advancing Translational Sciences (NCATS), 2010).
Some of the results follow. The main result of the screen is listed elsewhere. These columns were measured beside it and carry no call. Compounds called inactive in the main read-out are mostly missing here. The note in brackets gives the kind of curve behind each potency; many fits are weak.

Assay: qHTS Assay for Lipid Storage Modulators in Drosophila S3 Cells;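 on cell number change: cells counted by Cell Tracker Red CMTPX staining in the red channel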
Settings: BODIPY lipid droplet fluorescence, 18-24 h; for cell number change: measured here: cell count max response, cells fed with added oleic acid
Method in brief: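 Laser-scanning cytometry quantifies lipid droplet accumulation (500–530 nm total intensity; droplet/cell object ratio) in oleic acid-fed (400 uM added) Drosophila S3 cells treated with a concentration series. 20 uM Triacsin C defined 100% inhibition.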

[1] = measured here: lipid fluorescence (Fed channel) AC50, cells fed with added oleic acid
[2] = measured here: cell number channel AC50, cells fed with added oleic acid

Structure (SMILES)	cell number change [%]	AC50 [1]	AC50 [2]
Cn1cccc1/C=N/NC(=O)CSc1nc2ccccc2n1C	-10.3	0.13 µM [rising, partial curve, poor fit]	–
NC(=O)c1ccc(C(F)(F)F)n(Cc2c(Cl)cccc2Cl)c1=O	-65.4	–	29.1 µM [falling, single point]
O=C(NCCCN1CCOCC1)C(=O)N/N=C/c1ccccc1O	-31.5	–	29.1 µM [falling, single point]
c1ccc2c(c1)nc(N1CCOCC1)c1nncn12	20.4	0.731 µM [rising, full curve, poor fit]	–
COc1ccc(C2c3ccc(O)cc3Oc3ncn4nc(-c5ccco5)nc4c32)cc1OC (stereo not drawn)	-41.5	29.1 µM [falling, single point]	32.6 µM [falling, single point]
CCC(=O)Nc1ccc(N2CCN(C(=O)c3cccs3)CC2)cc1	137	–	16.4 µM [rising, partial curve]
CCOC(=O)N1CCN(c2c(NCCCN3CCCCCC3)c(=O)c2=O)CC1	-0.285	–	–
O=C1C(=O)N(CCN2CCOCC2)C(c2ccc([N+](=O)[O-])cc2)/C1=C(/O)c1ccc2c(c1)OCO2 (stereo not drawn)	61.1	–	13 µM [rising, partial curve]
O=C(CNC(=S)NC(=O)c1ccc(Br)o1)c1ccccc1	-3.88	0.92 µM [rising, full curve, poor fit]	–
Cc1ccsc1/C=C1/NC(=O)N(Cc2ccc(F)cc2)C1=O	-35.3	–	16.4 µM [falling, single point]
OCc1nc2ccccc2n1CCCOc1ccc(Br)cc1	-30.3	–	18.4 µM [falling, single point]
CCOc1ccc(CCNC(=O)c2cc([N+](=O)[O-])ccc2N2CCOCC2)cc1OCC	-24.1	20.6 µM [falling, partial curve, poor fit]	–
CCOC(=O)C1(Cc2ccccc2Cl)CCN(C(=O)CCn2ccnc2C)CC1	5.98	6.51 µM [falling, single point]	–
CN(C)S(=O)(=O)c1ccc(N/C=C(\[N+](=O)[O-])S(=O)(=O)c2ccccc2)cc1	-24.1	16.4 µM [falling, partial curve]	–
CC1CCN(S(=O)(=O)N2CCC(C(=O)NCCC3=CCCCC3)CC2)CC1	17.3	0.92 µM [rising, full curve]	–
CCN(CC(=O)Nc1ccc([N+](=O)[O-])cc1OC)CC(=O)NC(C)(C)C	-5.1	–	–
O=c1[nH]c(/C(Cl)=C/c2c(F)cccc2Cl)nc2cc(Cl)ccc12	-6.68	5.8 µM [rising, partial curve, poor fit]	6.51 µM [falling, partial curve]
CN(c1ccc(OC(=O)CN2C(=O)NC3(CCCC3)C2=O)cc1)S(=O)(=O)c1ccccc1	-3.05	25.9 µM [falling, single point]	–
CC(=O)c1ccc(OCC(=O)OCC(=O)Nc2sccc2C(N)=O)cc1	–	3.26 µM [falling, partial curve]	–
CCOc1ccc(NC(=O)C2CCCCN2S(=O)(=O)c2ccccc2)cc1 (stereo not drawn)	–	23.1 µM [rising, partial curve]	0.731 µM [rising, full curve, poor fit]

Structure (SMILES)	cell number change [%]	AC50 [1]	AC50 [2]
CCCc1cc(C(=O)OC)c(NC(=O)CCCC(=O)O)s1	15.4	–	–
COc1ccccc1-c1nc(SC)n[nH]1	21.5	–	–
Nc1nc(=S)[nH]c2c1C1(CCCCC1)Cc1ccccc1-2	2.54	–	6.51 µM [rising, single point]
COc1ccc(-c2ccc(SCC(=O)c3ccccc3)nn2)cc1OC	–	–	0.082 µM [rising, single point]
CCOC(=O)[C@H]1[C@H]2COc3cc(OC)ccc3[C@@H]2N2C(=O)c3cc(C)ccc3NC(=O)[C@@]12C	-13.8	0.116 µM [falling, full curve, poor fit]	–
O=C(Cc1ccc(O)cc1)NCCNC(=S)NCc1ccccc1	-16.5	16.4 µM [falling, single point]	–
CCc1nnc(NC(=O)CN2CCN(Cc3ccccc3Cl)CC2)s1	4.97	6.51 µM [rising, single point]	–
CNC(=S)N1CCc2ccccc2C1	8.48	0.092 µM [rising, full curve]	–
CC1NC(=O)N(C)C2NC(=O)N(C)C(c3ccccc3)C12 (stereo not drawn)	-2.48	–	–
COc1ccc(NC(=O)COC(=O)c2ccc(-n3cnnn3)cc2)cc1Cl	-10.9	0.731 µM [falling, single point]	–
Cc1nc2ccc(S(=O)(=O)Nc3cccc(-c4nc5cccnc5s4)c3)cc2s1	-32.1	0.82 µM [falling, partial curve, poor fit]	0.326 µM [falling, full curve, poor fit]
Nc1cc(C(=O)O)ccc1Nc1ccc(F)c(F)c1	-177	–	20.6 µM [falling, partial curve]
CCCCS(=O)(=O)/C=C\C=C/S(=O)(=O)CCCC	-55.1	–	32.6 µM [falling, single point]
Cc1ccc(-c2nc(C#N)c(NCc3ccco3)o2)cc1	-23.2	1.16 µM [rising, partial curve]	–
O=C(O)/C=C/C(=O)NCC1CCC(CNC(=O)/C=C/C(=O)O)CC1 (stereo not drawn)	-24.1	2.31 µM [falling, full curve, poor fit]	–
CCCn1nnc(NC(=O)c2ccc(-c3cccc(Cl)c3)o2)n1	-15.7	0.164 µM [falling, full curve, poor fit]	–
Cn1c(=O)c2c(nc(CN3CCN(c4ccccc4)CC3)n2CCN2CCOCC2)n(C)c1=O	35.8	10.3 µM [rising, partial curve]	7.31 µM [rising, partial curve]
CC(NCC(=O)Nc1ccccc1C(=O)NC1CC1)c1ccccc1Cl (stereo not drawn)	-4.5	6.51 µM [falling, single point]	7.31 µM [falling, single point]
COc1cc(C(=S)NC2CCCCC2)ccc1O	24.9	0.164 µM [rising, full curve, poor fit]	0.164 µM [rising, full curve, poor fit]
Cc1cccc(Cn2nc(-n3cccc3)c3c(C)cc(C)nc32)c1	14.7	–	–

Compounds from the list above with bromine (2):
Structure (SMILES)	cell number change [%]	AC50 [1]	AC50 [2]
O=C(CNC(=S)NC(=O)c1ccc(Br)o1)c1ccccc1	-3.88	0.92 µM [rising, full curve, poor fit]	–
OCc1nc2ccccc2n1CCCOc1ccc(Br)cc1	-30.3	–	18.4 µM [falling, single point]

Further results:

Structure (SMILES)	cell number change [%]	AC50 [1]	AC50 [2]
CN(CC(=O)Nc1ccccc1C(F)(F)F)C(=O)CSCc1ccc(Cl)c(Cl)c1	–	2.91 µM [rising, single point]	–
COc1ccc(CC(=O)OC(C)C(=O)NC2CCCCC2C)cc1 (stereo not drawn)	-12	–	–
N#Cc1ccc(C(=O)N2CCN(c3ncccn3)CC2)cc1	20.6	5.8 µM [rising, partial curve]	–
N#CCCN(C(=O)Nc1ccc(Cl)c(Cl)c1)c1ccccc1	30	10.3 µM [rising, partial curve]	8.2 µM [rising, partial curve]
COC(=O)[C@@H](c1ccccc1)N(C)S(=O)(=O)c1cccc(S(=O)(=O)N(C)[C@@H](C(=O)OC)c2ccccc2)c1	140	29.1 µM [rising, partial curve]	29.1 µM [rising, single point]
O=c1cc(-c2ccc(O)c(O)c2)oc2cc(O)cc(O)c12	–	1.84 µM [falling, partial curve]	–
N#C/C(=C/c1ccco1)c1nc2ccccc2s1	6.5	4.11 µM [falling, full curve, poor fit]	–
COC(=O)c1ccccc1NC(=O)CNC(=O)c1ccc(OC)cc1	86.6	–	14.6 µM [rising, partial curve]
Oc1c(C=NCc2ccc(F)cc2)[nH]c2ccc(Br)c(Cl)c12	39.1	29.1 µM [rising, single point]	20.6 µM [rising, single point]
COc1ccc(N=c2oc3cc(O)ccc3cc2C(=O)Nc2ccccn2)cc1OC	-34.4	29.1 µM [falling, single point]	0.58 µM [falling, full curve, poor fit]
Cc1nc2cc(CO)ccc2n1C	-113	18.4 µM [falling, single point]	32.6 µM [falling, partial curve]
Cc1ccc(OCCn2ncc3ccccc3c2=O)c(C)c1	-2.78	29.1 µM [rising, single point]	–
COc1ccc(C(=O)NC(=S)Nc2ccc(CN3CCOCC3)cc2)cc1Cl	-6.19	6.51 µM [falling, single point]	–
CSc1nnc(-c2ccc([N+](=O)[O-])cc2)o1	33.3	6.51 µM [rising, single point]	0.00411 µM [rising, full curve, poor fit]
Cc1cccc2cc(C#N)c(NCc3ccccc3)nc12	–	2.06 µM [rising, single point]	2.06 µM [rising, single point]
COC(=O)c1ccc(SC)cn1	-27.6	0.0058 µM [falling, full curve]	–
O=C1CCCN1C(=O)COc1cc(F)ccc1[N+](=O)[O-]	-3.11	4.11 µM [rising, single point]	–
CCOCCCNC(=O)CN1C(=O)COc2ccc(S(=O)(=O)N3CCCC3)cc21	–	–	0.58 µM [rising, partial curve]
COc1ccc(Br)c(C(=O)NC2CCCC2)c1	-15.6	9.2 µM [falling, partial curve, poor fit]	–
